Test results: patent US20150284723A1 (MEDICAL DIAGNOSTIC LABORATORIES, published 2015)
No constants are given. Whether binding was seen depends on the method and setting. Binding seen in cells or lysates may run through a third protein. Some entries that bind do so weakly or less than the wild type. Tags and fused reporters may be left off the sequences shown.

Sequences of proteins named here, by UniProt entry; tags and fusion partners are left off. A change or cut given only in a name is not applied to a line headed by its entry.
UniProt P67775: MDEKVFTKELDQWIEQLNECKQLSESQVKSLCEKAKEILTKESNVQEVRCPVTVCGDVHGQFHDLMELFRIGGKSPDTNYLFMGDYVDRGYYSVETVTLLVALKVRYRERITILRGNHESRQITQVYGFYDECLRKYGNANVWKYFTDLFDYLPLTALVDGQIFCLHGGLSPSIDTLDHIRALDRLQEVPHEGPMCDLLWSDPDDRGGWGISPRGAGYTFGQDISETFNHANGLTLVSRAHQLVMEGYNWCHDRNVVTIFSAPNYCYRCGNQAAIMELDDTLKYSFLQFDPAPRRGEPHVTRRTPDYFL
UniProt P62714: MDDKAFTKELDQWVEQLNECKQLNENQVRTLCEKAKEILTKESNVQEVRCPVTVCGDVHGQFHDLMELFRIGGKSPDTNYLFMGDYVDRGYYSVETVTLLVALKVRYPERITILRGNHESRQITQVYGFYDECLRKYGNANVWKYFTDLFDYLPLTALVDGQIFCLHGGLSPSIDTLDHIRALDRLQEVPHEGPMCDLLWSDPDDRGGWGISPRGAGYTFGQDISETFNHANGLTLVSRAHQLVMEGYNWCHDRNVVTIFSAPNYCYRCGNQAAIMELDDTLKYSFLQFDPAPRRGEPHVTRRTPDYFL

Legend:
[1] = target: FLAG-Ppp2ca (Homo sapiens (Human)) (UniProt P67775); experiment: FLAG co-immunoprecipitation from co-transfected HEK293T cells, Western blot with anti-V5
[2] = target: T1, FLAG-Ppp4c (Bos taurus (Bovine)) (UniProt A6H772); experiment: as above
T1 sequence: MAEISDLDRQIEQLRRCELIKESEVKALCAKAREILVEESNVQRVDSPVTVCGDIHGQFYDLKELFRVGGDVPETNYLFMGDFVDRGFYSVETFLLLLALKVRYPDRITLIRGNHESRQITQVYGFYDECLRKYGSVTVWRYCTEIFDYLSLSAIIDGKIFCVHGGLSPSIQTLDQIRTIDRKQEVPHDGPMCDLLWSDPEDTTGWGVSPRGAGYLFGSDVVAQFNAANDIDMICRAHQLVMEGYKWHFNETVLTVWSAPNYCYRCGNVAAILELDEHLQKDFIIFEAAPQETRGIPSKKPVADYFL

[3] = target: Ppp2ca, the alpha isoform of the catalytic subunit of PP2A (endogenous) (human) (UniProt P67775); experiment: FLAG co-immunoprecipitation from ECC-1 lysate, Western blot
[4] = target: T2, Ppp4c, the catalytic subunit of PP4 (endogenous) (human) (UniProt P60510); experiment: as above
T2 sequence: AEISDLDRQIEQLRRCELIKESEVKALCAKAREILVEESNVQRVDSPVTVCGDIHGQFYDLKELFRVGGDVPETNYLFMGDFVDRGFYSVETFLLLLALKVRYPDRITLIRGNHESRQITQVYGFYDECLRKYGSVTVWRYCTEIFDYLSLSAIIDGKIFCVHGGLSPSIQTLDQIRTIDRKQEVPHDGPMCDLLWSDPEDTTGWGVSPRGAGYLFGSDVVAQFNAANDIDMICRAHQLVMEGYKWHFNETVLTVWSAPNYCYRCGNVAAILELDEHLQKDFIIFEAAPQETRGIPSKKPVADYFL

[5] = target: Ppp2ca, the alpha isoform of the catalytic subunit of PP2A (endogenous) (human) (UniProt P67775); experiment: FLAG co-immunoprecipitation from ECC-1 lysate, Western blot with anti-Ppp2ca
[6] = target: Ppp2cb, the beta isoform of the catalytic subunit of PP2A (human) (UniProt P62714); experiment: FLAG co-immunoprecipitation from ECC-1 lysate, Western blot (data not shown)

B1: V5-PME-1 S156A (enzyme, human, UniProt Q9Y570 1-386, looked up, not shown: small tags and cut ends)
chain: MSALEKSMHLGRLPSRPPLPGSGGSQSGAKMRMGPGRKRDFSPVPWSQYFESMEDVEVENETGKDTFRVYKSGSEGPVLLLLHGGGHSALSWAVFTAAIISRVQCRIVALDLRSHGETKVKNPEDLSAETMAKDVGNVVEAMYGDLPPPIMLIGHAMGGAIAVHTASSNLVPSLLGLCMIDVVEGTAMDALNSMQNFLRGRPKTFKSLENAIEWSVKSGQIRNLESARVSMVGQVKQCEGITSPEGSKSIVEGIIEEEEEDEEGSESISKRKKEDDMETKKDHPYTWRIELAKTEKYWDGWFRGLSNLFLSCPIPKLLLLAGVDRLDKDLTIGQMQGKFQMQVLPQCGHAVHEDAPDKVAEAVATFLIRHRFAEPIGGFQCVFPGC
binding [1]: binds
binding [2]: binds

B2: FLAG-tagged PME-1 S156A (catalytically inactive mutant) (enzyme, human, UniProt Q9Y570 1-386, looked up, not shown: small tags and cut ends)
chain: MSALEKSMHLGRLPSRPPLPGSGGSQSGAKMRMGPGRKRDFSPVPWSQYFESMEDVEVENETGKDTFRVYKSGSEGPVLLLLHGGGHSALSWAVFTAAIISRVQCRIVALDLRSHGETKVKNPEDLSAETMAKDVGNVVEAMYGDLPPPIMLIGHAMGGAIAVHTASSNLVPSLLGLCMIDVVEGTAMDALNSMQNFLRGRPKTFKSLENAIEWSVKSGQIRNLESARVSMVGQVKQCEGITSPEGSKSIVEGIIEEEEEDEEGSESISKRKKEDDMETKKDHPYTWRIELAKTEKYWDGWFRGLSNLFLSCPIPKLLLLAGVDRLDKDLTIGQMQGKFQMQVLPQCGHAVHEDAPDKVAEAVATFLIRHRFAEPIGGFQCVFPGC
binding [3]: binds
binding [4]: binds
binding [5]: binds

B3: FLAG-tagged PME-1 (wild-type protein methylesterase 1) (enzyme, human, UniProt Q9Y570 1-386, looked up, not shown: small tags and cut ends)
chain: MSALEKSMHLGRLPSRPPLPGSGGSQSGAKMRMGPGRKRDFSPVPWSQYFESMEDVEVENETGKDTFRVYKSGSEGPVLLLLHGGGHSALSWAVFTAAIISRVQCRIVALDLRSHGETKVKNPEDLSAETMAKDVGNVVEAMYGDLPPPIMLIGHSMGGAIAVHTASSNLVPSLLGLCMIDVVEGTAMDALNSMQNFLRGRPKTFKSLENAIEWSVKSGQIRNLESARVSMVGQVKQCEGITSPEGSKSIVEGIIEEEEEDEEGSESISKRKKEDDMETKKDHPYTWRIELAKTEKYWDGWFRGLSNLFLSCPIPKLLLLAGVDRLDKDLTIGQMQGKFQMQVLPQCGHAVHEDAPDKVAEAVATFLIRHRFAEPIGGFQCVFPGC
binding [6]: binds
